Over roughly 33,000 sequences, “E-score (-0.5 to 0.5)” has its median near -0.0014; the highest 2% begin near 0.25. Some of the results follow.
Target: T1, Cad1 (UniProt P24813)
T1 sequence: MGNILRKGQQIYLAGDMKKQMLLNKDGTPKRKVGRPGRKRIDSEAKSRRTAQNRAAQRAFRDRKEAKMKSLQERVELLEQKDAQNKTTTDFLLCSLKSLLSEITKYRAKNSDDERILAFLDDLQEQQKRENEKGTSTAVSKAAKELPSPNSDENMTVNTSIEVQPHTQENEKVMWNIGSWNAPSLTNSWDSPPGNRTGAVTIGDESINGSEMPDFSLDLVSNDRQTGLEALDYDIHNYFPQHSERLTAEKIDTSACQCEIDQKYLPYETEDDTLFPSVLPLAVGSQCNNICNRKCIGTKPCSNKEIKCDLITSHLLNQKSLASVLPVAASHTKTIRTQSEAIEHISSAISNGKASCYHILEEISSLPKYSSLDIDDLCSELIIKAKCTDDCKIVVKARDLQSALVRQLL
Assay: PBM E-score (8-mer binding enrichment) (E-score (-0.5 to 0.5)); higher = stronger / more preferred TF binding
Conditions: protein concentration: 100 nM; construct: GST-full length
Summary of the method: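 Yeast transcription factors, full-length or as DNA-binding domains, were expressed with a GST tag using PURExpress in vitro transcription/translation. At about 100-200 nM they were applied to universal all-10-mer Agilent arrays, double-stranded by primer extension on fresh or once-stripped slides. Fluorescent anti-GST detected bound protein, and masliner normalised the scans. E-scores for ungapped eight-base words, pooled with reverse complements, came from the Universal PBM Analysis Suite.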

Sequence	PBM E-score
AGCTTTTG	-0.0584
TCGTCGAA	0.0954
CACACCAA	0.117
GCCACCAA	0.0659
ATGTCATA	0.188
GGAGACCC	-0.207
GCATGACA	0.0476
CTTCGGCC	0.00251
ATAGACAT	-0.0972
AACCAAAT	0.0908
CTGCGTTA	0.004
GATTGCCA	-0.0239
AGTCTTCA	-0.0242
AGTAGGGG	-0.192
AAAGTTGT	0.172
AACGAGGC	-0.101
ATTATGAG	-0.00228
ATCCACAG	-0.0132
ATTAGACG	0.0681
ATTGAATA	0.281
CGAACGGC	0.0897
GGCTGTGA	-0.157
GAGCAACC	0.00873
GACGTCCC	-0.00551
AGAACATG	-0.054

Sequence	PBM E-score
CCAACGGG	-0.192
CGGTATCA	0.0366
GCCCTTCA	-0.192
TGCTTAAA	0.108
CATGTATC	-0.0673
AGGTCGGA	-0.00641
AGCGTAAT	0.0476
TAAACCAA	-0.00347
ATTTACTC	0.174
AGGATGTG	-0.0171
ACGGGCCG	-0.124
TCCAGTCA	-0.124
GATTTAGC	0.0176
CGGCTGCC	-0.0978
AATTCAAC	0.121
CGATGGAC	0.132
ATATTTGG	0.146
CTCCGGAA	0.00101
GACTACGC	-0.141
ACTATCCG	0.204
TCTTTCCA	-0.116
CCAGCCCG	-0.102
CCTACAGG	-0.239
ATAACAAG	0.205
AAAGGTAA	-0.00154

Sequence	PBM E-score
AAAAGTTA	0.0315
ACTTTCGA	0.0684
GCGTACGC	0.0822
GGCAGTGA	-0.103
CAAAAGAG	-0.0845
AATCGGCA	0.173
CTCACTGA	-0.0364
CACCGGCC	-0.209
GGGCAGAC	-0.263
ACTCAGGA	-0.0464
GCCGCGCA	0.027
AAGATCGG	-0.207
GCGGTAAC	0.162
AAAACGTG	0.099
AACGAAGA	0.115
GGCCGAAA	0.171
CTCCTTGC	-0.141
AGAATGGG	-0.171
CCTATGGC	0.0419
AAACGGTC	0.0328
ATGGAACA	0.0806
AGGGAAAC	-0.158
TATGATCA	0.212
AGAGGTAA	0.0108
GATCCGAA	0.121

Sequence	PBM E-score
CCCTTAGC	-0.097
CGTTAAAC	0.148
CACTAAAA	0.19
GGAAAAGA	-0.191
ATTACGGA	0.183
AGGATCTA	-0.266
GATGTAAA	0.13
TCGTAACA	0.149
AATCCCGT	0.126
GGCCGCAC	-0.144
GACGTCAA	0.00094
ACGCGTCT	0.101
AGTGCCCG	-0.0933
CTGCGCTC	-0.191
GCAAGTGC	-0.205
AACCCTAA	-0.0165
ATAGAAGG	-0.198
AGCCCCTG	-0.451
ATGATGTG	-0.0446
ATAGGTCC	0.166
AACGTAAA	0.0278
GTCTTTTA	-0.185
CGTCCGAA	0.1
AACGGCGC	0.0704
CACGGCAG	0.00744

Sequence	PBM E-score
AGATTTTC	0.122
CGTCAGAC	0.0191
ACAGGGCC	-0.00762
AACCGTTG	0.0938
CGTGGACA	-0.0853
ACGGTCGA	-0.117
CGCATGCG	0.152
AAAACTGC	0.007
CTAGGAAC	-0.146
CTACAGCC	-0.242
AAAGCCGT	0.0224
CTGAATGA	0.0667
GCACGGGC	-0.216
ATCTTTTA	0.0275
CAGACCGG	-0.12
CTGAATCA	0.11
GCATGGAC	-0.0417
GTTGTTTA	0.145
AGGCCAAC	0.0871
CGAGACAC	-0.197
ACTCTAGA	0.00207
ATCTTGGA	-0.0402
ATAAACGA	0.144
CAACGACG	0.0367
AGCGTGTG	0.162

Sequence	PBM E-score
GCGGCCGC	0.175
ACGAAGTC	-0.0674
ACACTCAT	0.0832
CCCTAATC	-0.076
ACGAAAGG	0.0577
CATGCCCA	-0.327
GCGGTTAA	-0.0387
GACCTAGC	0.0662
CTCGTGAA	-0.0632
CCATCGGA	-0.239
CACGAGAA	-0.106
GCTTTTAC	-0.0563
GTGAACGA	0.0597
ACTTATCT	0.0827
ACGGTTTA	0.0206
AGAGGCCG	-0.24
ATATAAAA	0.0859
CCGGCACA	0.0937
GCATAACA	0.0962
CGATCGAG	0.142
ATTGATGC	0.153
AAGGAGCC	-0.283
AAACTTTC	0.00621
AGGGGCGC	-0.103
ACAGGCGT	-0.0624

2 entries from above, reformatted.
Sequence,PBM E-score
CATGCCCA,-0.327
GCGGTTAA,-0.0387

(further entries)

Sequence	PBM E-score
ATCTTTAA	0.109
ACTTATAT	0.202
CGGTGTTC	0.0183
AGGAGGAG	-0.284
CTTTGATA	0.142
CAAAGCAG	-0.0243
CCATGCTC	-0.317
CAAAAGAA	0.186
CTCTGTGC	-0.056
CAAGATTA	0.125
CTTGTCTC	-0.0523
AAAGCCCC	-0.269
CAGAGAAA	0.158
ATCGTGTC	0.03
ACCAGTCG	0.00162
AATTTACG	0.19
AAGTCGGC	-0.121
GAGATGCA	-0.161
ATGCTGGG	-0.0707
AGGCGAAT	-0.108
GGTACGAA	0.00468
GCTCACAC	0.0652

An excerpt of these results, bar-delimited.
Sequence | PBM E-score
CAGAGAAA | 0.158
ATCGTGTC | 0.03
ACCAGTCG | 0.00162
AATTTACG | 0.19
AAGTCGGC | -0.121

Source: the supplement of paper PMC3334620
